Percent effect of library compounds

Chains of the proteins cited; added tags and fusions are not shown. Residues count along the entry.
UniProt Q4DA54, 1-478: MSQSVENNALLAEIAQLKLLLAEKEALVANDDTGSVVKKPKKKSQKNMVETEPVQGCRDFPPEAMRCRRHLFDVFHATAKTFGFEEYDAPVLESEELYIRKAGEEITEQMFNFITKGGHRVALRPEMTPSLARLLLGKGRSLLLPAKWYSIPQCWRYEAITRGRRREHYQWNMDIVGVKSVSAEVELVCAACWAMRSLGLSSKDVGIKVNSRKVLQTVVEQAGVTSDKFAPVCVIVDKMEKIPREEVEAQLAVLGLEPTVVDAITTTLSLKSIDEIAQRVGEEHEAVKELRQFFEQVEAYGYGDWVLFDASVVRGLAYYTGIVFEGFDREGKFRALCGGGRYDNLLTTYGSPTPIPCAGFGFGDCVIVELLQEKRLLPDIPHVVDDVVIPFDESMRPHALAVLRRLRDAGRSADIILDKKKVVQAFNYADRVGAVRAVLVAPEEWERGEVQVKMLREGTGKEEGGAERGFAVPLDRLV

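Histidine-tRNA ligase, Trypanosoma cruzi CL Brener (UniProt Q4DA54). Enzyme assay of histidyl-tRNA synthetase; the read-out is not stated. Compounds at 30 µM. Higher reads as stronger inhibition (inferred: compounds with an IC50 in retests scored well above the rest). Of about 69,000 compounds tested this way, about 31 (0.045%) reached 50% or more in at least one test.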

Each number is a percent effect as filed.
How 0% and 100% were set is not recorded. Most values in the screen are low, and negative values occur.
Compounds were drawn at random from those tested, without regard to their results.

| compound | percent effect |
|---|---|
| `CN1CCC(N2CCCC(C(=O)N3Cc4ccccc4C3)C2)CC1` (centres unmarked) | 8 |
| `COCC1c2nnn(C)c2CCN1C(=O)Cc1ccc2c(c1)OCO2` (centres unmarked) | 2.299 |
| `CC(=O)N1CCOC(c2cncc(CCC(N)=O)n2)C1` (centres unmarked) | 3.077 |
| `CC(=O)N1CCC(NC(=O)N2CCCC2c2ccsc2)CC1` (centres unmarked) | 0.5236 |
| `c1ccc(OCc2nnc3n2CCN(CC2CCOCC2)C3)nc1` | 9.29 |
| `Cc1cc(C2CCCCCN2Cc2cn(C)nc2C)no1` (centres unmarked) | 5.243 |
| `CC(C)CNC(=O)CN(CC(=O)NCC(C)C)S(C)(=O)=O` | 8 |
| `O=c1cc(CN2CCCC2)nc2n1CCCN(S(=O)(=O)C1CC1)C2` | 0.5587 |
| `CC(=O)N(Cc1ncc(C)o1)C1CCN(CCCc2cnn(C)c2)C1` (centres unmarked) | 4.151 |
| `N#Cc1ccc(CN2CCCC(Cn3cncn3)C2)c(F)c1` (centres unmarked) | 6.952 |
| `c1cncc(-c2ccc3c(c2)CCC32CCN(Cc3nccs3)CC2)c1` | 11.49 |
| `CCN(CC)C(CNS(=O)(=O)NCc1ccccc1)c1ccco1` (centres unmarked) | 3.247 |
| `Cc1nnc2n1CCN(C(C(=O)NC1CC1)c1ccc(F)cc1)C2` (centres unmarked) | 6.158 |
| `CC(=O)c1ccn(CC(=O)Nc2nn(CC3CC3)c3ccccc23)n1` | 6.186 |
| `CC(=O)N1CCCC(C(=O)N2CCN(c3cnn(C)c(=O)c3)CC2)C1` (centres unmarked) | 0 |
| `NC(=O)c1c(SCCN2CCOCC2)sc2c(O)cc(=O)[nH]c12` | 0 |
| `CCN(C)S(=O)(=O)NCC(C)(O)c1ccsc1` (centres unmarked) | 2.632 |
| `O=C(c1ccccc1)N1CCC[C@]2(C[C@@H](Oc3ncccc3F)CO2)C1` | 5.263 |
| `CSc1cc2c(cc1NC(=O)NCc1ccncc1)OCCO2` | -3.922 |
| `c1ccc2sc(N3CCOC(Cn4cccn4)C3)nc2c1` (centres unmarked) | 0 |
| `Cc1nc(C2CCN(C(=O)COC(C)C)CC2)cc(N2CCOCC2)n1` | 7.143 |
| `O=C(COC1CCCC1)N1C[C@@H]2COC[C@]2(COc2cccnc2)C1` | -3.175 |
| `Cc1cnc(N2C(=O)CSC2c2ccc(N(C)C)cc2)s1` (centres unmarked) | 12.37 |
| `O=C(CCc1nc(-c2ccccn2)no1)N1CCCC1c1ccsc1` (centres unmarked) | 5.714 |
| `C[S+]([O-])c1nncn1CC(=O)c1cccc(Br)c1` (centres unmarked) | -40.7 |
| `CN(C)Cc1nn(C)c2c1CCN(C(=O)c1cccnc1)C2` | 0.4808 |
| `CN(C)C(=O)CN1C[C@@H]2CC[C@H](C1)N(C(=O)Cc1ccccc1Cl)C2` | 4.132 |
| `CCN1C(=O)CC[C@@H]2[C@H]1CCN2S(=O)(=O)c1cccs1` | 5.825 |
| `CC(C(=O)NCCN1CCOCC1)n1cncn1` (centres unmarked) | 2.89 |
| `CN(C)CCNC(=O)c1nc2c(o1)CN(c1ncccn1)C2` | 5.063 |
| `CCc1nnc(CN2CCN(c3cccc(OC)c3)C(=O)C2)o1` | 2.513 |
| `O=C(c1cscn1)N1CCCC2(CCN2Cc2cccc(F)c2)C1` (centres unmarked) | 3.315 |
| `COCc1cccc(NCc2cccnc2)c1` | -4.348 |
| `NC(=O)CCn1ccc(NCc2cc(F)ccc2Br)n1` | 7.407 |
| `Cc1ccnc(NCc2cn3c(C)csc3n2)n1` | 7.182 |
| `CC(C)(C)c1ccc(C2(C(=O)NCCCS(C)(=O)=O)CC2)cc1` | 2.51 |
| `Nc1ccnc(CNc2cc(F)ccc2OCC2CCCO2)n1` (centres unmarked) | 4.926 |
| `CCN(CC1CCOC1)C(=O)Nc1ccc(-n2cncn2)nc1` (centres unmarked) | 3.053 |
| `O=C(NCCn1ccnc1)c1cccc(F)c1` | 0 |
| `CC(=O)c1ccc(N2CCC3(CC2)CC(=O)N(C)C3)nc1` | -10.34 |
| `Cc1cc(C)n(CC2CCCCN2C(=O)c2sccc2C#N)n1` (centres unmarked) | 0.5405 |
| `CC(C)c1nn(C)c(N(C)C)c1CNCc1ccc2c(c1)OCO2` | 2.273 |
| `CC1=N[C@@]2(CC[C@@H]3CN(CC(=O)N(C)C)C[C@@H]32)C(=O)N1CC(C)C` | -6.011 |
| `CC(=O)N1CCC(N2CC(Cc3nccc4ccn(C)c34)C2)CC1` | 22.47 |
| `Cc1nc(CN2CCN(C3CCOC3)Cc3cccnc32)cs1` (centres unmarked) | -2.151 |
| `CC(CN1CCCC1=O)NC(=O)Nc1ccccc1Cn1cccn1` (centres unmarked) | 7.292 |
| `Cc1ccc(C(=O)NCC(O)c2cnn(C)c2)c(Br)c1` (centres unmarked) | 3 |
| `CCc1noc(C(C)N2CCN(Cc3nc(C)c(C)o3)CC2)n1` (centres unmarked) | 6.464 |
| `CC(C)NC(=O)NCc1ccc(C(=O)NC(C)Cn2cccn2)cc1` (centres unmarked) | 4.373 |
| `Cc1ccc(C#N)c(N2CCC3(CCC(=O)N(CC(N)=O)C3)CC2)n1` | 5.051 |
| `CCCc1ccc(C(=O)N2CCn3c(nnc3C(C)C)C2)cc1` | 3.361 |
| `O=C1NC(c2ccccc2)=N[C@@]12CC[C@@H]1CN(Cc3ccccc3)C[C@@H]12` | 2.703 |
| `CC(C)N1CCc2c(C#N)c(NCc3ccco3)n3cnnc3c2C1` | 1.087 |

Some entries from above, unchanged:

compound	percent effect
CC(=O)N(Cc1ncc(C)o1)C1CCN(CCCc2cnn(C)c2)C1 (centres unmarked)	4.151
CC(C)NC(=O)NCc1ccc(C(=O)NC(C)Cn2cccn2)cc1 (centres unmarked)	4.373
Cc1ccnc(NCc2cn3c(C)csc3n2)n1	7.182
Nc1ccnc(CNc2cc(F)ccc2OCC2CCCO2)n1 (centres unmarked)	4.926

From ChEMBL document CHEMBL3988442, “University of Dundee, Small-Polar-MMV Screening Library” (2021).